This passage reports binding results from patent US20240167070A1.

Sequences of proteins named here, by UniProt entry; tags and fusion partners are left off. Residues count along the entry.
UniProt P08253, residues 110-660: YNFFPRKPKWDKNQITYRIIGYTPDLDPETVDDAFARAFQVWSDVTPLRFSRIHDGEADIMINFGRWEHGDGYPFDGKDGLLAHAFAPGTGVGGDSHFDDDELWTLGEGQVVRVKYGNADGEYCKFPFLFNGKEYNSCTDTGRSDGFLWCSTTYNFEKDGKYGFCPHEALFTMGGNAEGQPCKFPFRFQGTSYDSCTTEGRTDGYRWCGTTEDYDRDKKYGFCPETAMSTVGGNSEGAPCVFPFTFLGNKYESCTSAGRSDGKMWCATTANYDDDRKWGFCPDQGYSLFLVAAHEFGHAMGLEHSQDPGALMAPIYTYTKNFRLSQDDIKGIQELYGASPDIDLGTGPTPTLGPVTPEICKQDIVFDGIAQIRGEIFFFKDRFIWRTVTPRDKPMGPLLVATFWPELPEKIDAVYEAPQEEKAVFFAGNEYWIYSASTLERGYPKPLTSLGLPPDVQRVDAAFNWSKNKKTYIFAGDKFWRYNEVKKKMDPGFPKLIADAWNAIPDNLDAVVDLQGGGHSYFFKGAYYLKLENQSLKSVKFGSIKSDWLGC

No constants are given. Whether binding was seen depends on the method and setting. Some binding calls cover weakened binding; strength is not graded here.

For this assay, the target named is matrix metalloprotease 2 (MMP2) (UniProt P08253). Description: MMP2 FRET-substrate inhibition assay.

B1: Asn-RTD-1 19, cyclo[…] (peptide)
peptide: SYCNCLCRRGVCRCICTI
modifications: head-to-tail cyclic; oxidatively folded (disulfides)
As for B1, the binding entry is “binds”.

B2: Asp-RTD-1 18, cyclo[…] (peptide)
peptide: SYCDCLCRRGVCRCICTI
modifications: head-to-tail cyclic; oxidatively folded (disulfides)
Regarding B2, the binding entry is listed as “binds”.
